Reference: paper doi:10.1101/373704
Results are given in words; binding and its absence hold for the method and conditions named. Binding seen in cells or lysates may run through a third protein. Some results given as binding are weak or reduced against the parent protein; the word gives no strength.

Sequences of proteins named here, by UniProt entry; tags and fusion partners are left off.
UniProt Q92879: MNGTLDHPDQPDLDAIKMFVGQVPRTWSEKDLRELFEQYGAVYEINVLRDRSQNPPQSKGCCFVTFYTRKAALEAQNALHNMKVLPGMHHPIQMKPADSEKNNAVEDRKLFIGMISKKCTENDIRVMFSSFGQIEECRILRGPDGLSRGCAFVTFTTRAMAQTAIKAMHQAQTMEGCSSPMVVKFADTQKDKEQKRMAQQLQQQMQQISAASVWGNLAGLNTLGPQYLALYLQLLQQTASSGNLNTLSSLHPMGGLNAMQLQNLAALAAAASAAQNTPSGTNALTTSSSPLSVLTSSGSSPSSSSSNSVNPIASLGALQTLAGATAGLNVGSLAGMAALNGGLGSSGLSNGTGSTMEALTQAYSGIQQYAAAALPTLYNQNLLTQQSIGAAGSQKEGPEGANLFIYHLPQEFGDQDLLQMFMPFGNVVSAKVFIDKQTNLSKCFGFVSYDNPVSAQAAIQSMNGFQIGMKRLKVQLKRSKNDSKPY
UniProt Q15717: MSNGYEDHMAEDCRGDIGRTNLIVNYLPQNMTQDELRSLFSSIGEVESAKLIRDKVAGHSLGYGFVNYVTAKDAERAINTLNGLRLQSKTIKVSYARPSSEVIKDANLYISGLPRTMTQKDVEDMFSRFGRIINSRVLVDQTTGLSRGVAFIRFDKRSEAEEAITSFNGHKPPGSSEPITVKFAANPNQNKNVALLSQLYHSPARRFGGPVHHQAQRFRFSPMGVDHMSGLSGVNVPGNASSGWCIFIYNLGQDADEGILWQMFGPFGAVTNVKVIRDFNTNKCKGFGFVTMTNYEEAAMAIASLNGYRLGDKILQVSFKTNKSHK

Legend:
[1] = molecular target: EGFP-tagged CELF1 (CUGBP Elav-like family member 1) (human) (UniProt Q92879); assay: FRET or BRET
[2] = molecular target: EGFP-tagged ELAVL1 (ELAV-like RNA-binding protein 1) (human) (UniProt Q15717); assay: FRET or BRET

Row | Substance | binding [1] | binding [2]
1 | mCherry-tagged ELAVL1 (ELAV-like RNA-binding protein 1) (from UniProt Q15717 1-326) | binds | 
2 | mCherry-tagged CELF1 (CUGBP Elav-like family member 1) (from UniProt Q92879 1-486) | binds | binds
